The subject of experiment [1] is ReNCell VM. Kind of experiment: neuronal differentiation score (DCX+ cell fraction vs untreated, manual image score) (score (-3 to 3)); higher = more neuronal differentiation. The conditions noted are these: 2 uM, 2 weeks.
For experiment [2], the system named is ReNCell VM. The experiment can be described thus: dopaminergic neuron differentiation score (TH+ cell fraction vs untreated, manual image score) (score (0 to 3)); higher = more TH+ dopaminergic neuron differentiation. The settings on record: 2 uM, 4 weeks, BDNF 10 ng/ml + GDNF 10 ng/ml.

Where a name gives a salt, the structure may show the parent alone. The list shows a part of the results. This data set is noisy: repeats of one test often differ as much as different tests do.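 ReNCell VM, a human fetal ventral-midbrain neural progenitor line, was differentiated without mitogens. Blinded raters scored images stained for doublecortin (early neurons) or tyrosine hydroxylase (dopaminergic neurons) against untreated wells (0 = no change). Scores were averaged across repeats and both raters, and compounds averaging 2 or more were selected as hits for retesting.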

Results on 25 compounds are retold here after the supplement of paper PMC4635364.

On to `Oc1c(I)cc(I)c2cccnc12`, for which the neuronal differentiation score with ReNCell VM [1] (library: Spectrum) is inactive: 0. The “dopaminergic neuron differentiation score” value in the experiment with ReNCell VM [2] (library: Spectrum) is inactive: 0.

For `NCC(O)CC(=O)O` (stereo not given), the neuronal differentiation score in the experiment on ReNCell VM [1] (library: Spectrum) is inactive: 0. For the same compound, the “dopaminergic neuron differentiation score” value with ReNCell VM [2] (library: Spectrum) was inactive: 0.

For the compound `CCOC(=O)Nc1nc2ccccc2[nH]1`, the neuronal differentiation score in the experiment on ReNCell VM [1] (library: Spectrum) is inactive: 0. In addition, in the experiment with ReNCell VM [2] (library: Spectrum), the “dopaminergic neuron differentiation score” value is inactive: 0.

As to `C[C@@]12CCc3occc3[C@H]1CC[C@@]13C[C@@H](CC[C@H]12)[C@@](O)(CO)C3`, the neuronal differentiation score with ReNCell VM [1] (library: Spectrum) was inactive: 0. Moreover, the “dopaminergic neuron differentiation score” value in the experiment on ReNCell VM [2] (library: Spectrum) is inactive: 0.

Regarding `NC(=O)c1cnccn1`, the neuronal differentiation score with ReNCell VM [1] (library: Spectrum) was inactive: 0. The “dopaminergic neuron differentiation score” value in the experiment on ReNCell VM [2] (library: Spectrum) was inactive: 0.

Consider `COc1cc(CC(=O)O)ccc1O` [4-Hydroxy-3-methoxyphenylacetic acid], for which the neuronal differentiation score in the experiment with ReNCell VM [1] (library: LOPAC) is inactive: 0. Moreover, the “dopaminergic neuron differentiation score” value in the experiment with ReNCell VM [2] (library: LOPAC) was inactive: 0.

As to `CO[C@@]1(NC(=O)Cc2cccs2)C(=O)N2C(C(=O)O)=C(COC(N)=O)CS[C@@H]21` [Cefoxitin sodium salt], in the experiment on ReNCell VM [1] (library: Prestwick), the neuronal differentiation score was inactive: 0. Besides, in the experiment with ReNCell VM [2] (library: Prestwick), the “dopaminergic neuron differentiation score” value is inactive: 0.

Turning to `Cc1cc(O)cc(O)c1C(=O)O`, the neuronal differentiation score with ReNCell VM [1] (library: Spectrum) is inactive: 0. In the experiment on ReNCell VM [2] (library: Spectrum), the “dopaminergic neuron differentiation score” value was inactive: 0.

Regarding `CSc1nc2cc(Cl)c(Oc3cccc(Cl)c3Cl)cc2[nH]1`, in the experiment on ReNCell VM [1] (library: Spectrum), the neuronal differentiation score was inactive: 0. In addition, in the experiment on ReNCell VM [2] (library: Spectrum), the “dopaminergic neuron differentiation score” value is inactive: 0.

As for `Clc1ccc(C(c2ccccc2Cl)C(Cl)Cl)cc1` (stereo not given), the neuronal differentiation score in the experiment with ReNCell VM [1] (library: Spectrum) was inactive: 0. In addition, the “dopaminergic neuron differentiation score” value with ReNCell VM [2] (library: Spectrum) was inactive: 0.

As to `CCCOc1cc(N)ccc1C(=O)OCCN(CC)CC`, the neuronal differentiation score in the experiment with ReNCell VM [1] (library: Spectrum) is inactive: 0. The “dopaminergic neuron differentiation score” value in the experiment on ReNCell VM [2] (library: Spectrum) is inactive: 0.

As for `CC(=O)OC(C)C[N+](C)(C)C` (stereo not given), the neuronal differentiation score with ReNCell VM [1] (library: Spectrum) was inactive: 0. For the same compound, the “dopaminergic neuron differentiation score” value with ReNCell VM [2] (library: Spectrum) is inactive: 0.

`Nc1ccc2c3c(cccc13)C(=O)NC2=O` [4-Amino-1,8-naphthalimide]: in the experiment with ReNCell VM [1] (library: LOPAC), the neuronal differentiation score is inactive: 0. Further, the “dopaminergic neuron differentiation score” value with ReNCell VM [2] (library: LOPAC) is inactive: 0.

As to `Oc1cc2c(cc1O)C(c1ccccc1)CNCC2` (stereo not given), the neuronal differentiation score in the experiment on ReNCell VM [1] (library: Tocriscreen) was inactive: 0. Besides, in the experiment on ReNCell VM [2] (library: Tocriscreen), the “dopaminergic neuron differentiation score” value is inactive: 0.

Take `COc1cccc(O)c1O`: the neuronal differentiation score in the experiment on ReNCell VM [1] (library: Spectrum) is inactive: 0. Besides, in the experiment with ReNCell VM [2] (library: Spectrum), the “dopaminergic neuron differentiation score” value was inactive: 0.

Consider `Nc1ncn([C@H]2C[C@H](O)[C@@H](CO)O2)c(=O)n1` [Decitabine], for which, in the experiment with ReNCell VM [1] (library: Tocriscreen), the neuronal differentiation score is inactive: 0. In addition, the “dopaminergic neuron differentiation score” value in the experiment with ReNCell VM [2] (library: Tocriscreen) was inactive: 0.

With `C=C[C@](C)(O)CC[C@@H]1[C@@]2(C)CCCC(C)(C)[C@@H]2CC[C@@]1(C)O`, in the experiment on ReNCell VM [1] (library: Spectrum), the neuronal differentiation score is inactive: 0. Besides, the “dopaminergic neuron differentiation score” value in the experiment on ReNCell VM [2] (library: Spectrum) is inactive: 0.

For the compound `COc1ccc2cc([C@H](C)CO)ccc2c1`, the neuronal differentiation score in the experiment with ReNCell VM [1] (library: Spectrum) is inactive: 0. Further, the “dopaminergic neuron differentiation score” value with ReNCell VM [2] (library: Spectrum) is inactive: 0.

Consider `CC(C)NCC(O)COc1ccc(COCCOC(C)C)cc1` (stereo not given) [Bisoprolol fumarate], for which the neuronal differentiation score with ReNCell VM [1] (library: Prestwick) is inactive: 0. In addition, the “dopaminergic neuron differentiation score” value in the experiment on ReNCell VM [2] (library: Prestwick) is inactive: 0.

For `CC(C)=CCOc1cc2oc(=O)ccc2cc1O`, the neuronal differentiation score in the experiment with ReNCell VM [1] (library: Spectrum) was inactive: 0. In the experiment on ReNCell VM [2] (library: Spectrum), the “dopaminergic neuron differentiation score” value is inactive: 0.

With `CC(=O)OC/C=C(\C)CC/C=C(\C)CC/C=C(\C)CC/C=C(\C)CC/C=C(\C)CC/C=C(\C)CC/C=C(\C)CC/C=C(\C)CCC=C(C)C`, in the experiment with ReNCell VM [1] (library: Spectrum), the neuronal differentiation score was inactive: 0. The “dopaminergic neuron differentiation score” value with ReNCell VM [2] (library: Spectrum) was inactive: 0.

For the compound `Nc1cc(-c2ccncc2)c[nH]c1=O`, the neuronal differentiation score with ReNCell VM [1] (library: Spectrum) is inactive: 1. Besides, in the experiment with ReNCell VM [2] (library: Spectrum), the “dopaminergic neuron differentiation score” value is inactive: 1.

Turning to `C[C@]12CC[C@@H]3c4ccc(O)cc4CC[C@H]3[C@@H]1CC[C@@H]2O` [Estradiol-17 beta], in the experiment with ReNCell VM [1] (library: Prestwick), the neuronal differentiation score is inactive: 0. Moreover, in the experiment on ReNCell VM [2] (library: Prestwick), the “dopaminergic neuron differentiation score” value was inactive: 0.

On to `CCN(CC)C(=O)N1CCN(C)CC1` [Diethylcarbamazine citrate], for which the neuronal differentiation score in the experiment with ReNCell VM [1] (library: Prestwick) is inactive: 0. Besides, in the experiment with ReNCell VM [2] (library: Prestwick), the “dopaminergic neuron differentiation score” value is inactive: 0.

Regarding `CC(C)(Oc1ccc(C(=O)c2ccc(Cl)cc2)cc1)C(=O)O`, the neuronal differentiation score with ReNCell VM [1] (library: Spectrum) was inactive: 0. The “dopaminergic neuron differentiation score” value in the experiment on ReNCell VM [2] (library: Spectrum) is inactive: 0.
